Crude yield data for one sequence are collected here from patent US9303064B2 (CAREGEN CO., LTD., priority 2011, dated 2016).

The data set is described as follows: peptide synthesis. The following applies: whole synthesis.

End groups of sequences in plain letters are not given here.

In the case of SIPCKLQSG, the crude yield is on record as 93%.
